Measurements from paper PMC11961634.
Results are given in words; binding and its absence hold for the method and conditions named. Binding seen in cells or lysates may run through a third protein. A result given as binding can be weak or reduced; the word gives no strength.

Molecular target: T1, endogenous STAT1 (rat (endogenous in subchondral bone MSCs)) (UniProt Q9QXK0)
T1 sequence: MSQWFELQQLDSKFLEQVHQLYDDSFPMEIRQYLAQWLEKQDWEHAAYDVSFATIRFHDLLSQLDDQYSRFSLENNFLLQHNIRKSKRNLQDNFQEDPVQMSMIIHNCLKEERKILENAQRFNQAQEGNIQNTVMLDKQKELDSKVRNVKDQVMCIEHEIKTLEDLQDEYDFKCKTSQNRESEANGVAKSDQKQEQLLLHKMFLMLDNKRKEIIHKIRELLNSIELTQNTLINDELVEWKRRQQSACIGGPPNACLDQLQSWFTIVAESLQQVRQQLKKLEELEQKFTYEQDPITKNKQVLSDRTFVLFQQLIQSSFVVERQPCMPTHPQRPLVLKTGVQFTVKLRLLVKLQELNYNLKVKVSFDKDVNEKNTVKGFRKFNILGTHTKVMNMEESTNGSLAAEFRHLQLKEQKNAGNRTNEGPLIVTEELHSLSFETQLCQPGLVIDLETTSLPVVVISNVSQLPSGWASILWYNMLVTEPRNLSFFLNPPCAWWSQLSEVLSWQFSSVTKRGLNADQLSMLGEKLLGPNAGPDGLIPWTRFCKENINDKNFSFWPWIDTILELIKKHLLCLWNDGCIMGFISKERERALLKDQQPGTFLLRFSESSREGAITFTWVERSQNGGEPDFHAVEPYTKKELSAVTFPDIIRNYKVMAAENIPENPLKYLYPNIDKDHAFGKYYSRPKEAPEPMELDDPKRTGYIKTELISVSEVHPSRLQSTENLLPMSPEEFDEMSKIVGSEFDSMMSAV
Assay: co-IP; whole cell extracts of MSCs (control, force, force with Piezo1 siRNA); lysates with the specified antibodies overnight at 4 °C, protein A/G plus agarose 2 h at 4 °C, western blot

binding: binds
Substance: endogenous CaMKII (enzyme)
